Results taken from the supplement of paper PMC10849652.
This is one part of the list.

Sequences of proteins named here, by UniProt entry; tags and fusion partners are left off. A change or cut given only in a name is not applied to a line headed by its entry.
UniProt Q2TB90: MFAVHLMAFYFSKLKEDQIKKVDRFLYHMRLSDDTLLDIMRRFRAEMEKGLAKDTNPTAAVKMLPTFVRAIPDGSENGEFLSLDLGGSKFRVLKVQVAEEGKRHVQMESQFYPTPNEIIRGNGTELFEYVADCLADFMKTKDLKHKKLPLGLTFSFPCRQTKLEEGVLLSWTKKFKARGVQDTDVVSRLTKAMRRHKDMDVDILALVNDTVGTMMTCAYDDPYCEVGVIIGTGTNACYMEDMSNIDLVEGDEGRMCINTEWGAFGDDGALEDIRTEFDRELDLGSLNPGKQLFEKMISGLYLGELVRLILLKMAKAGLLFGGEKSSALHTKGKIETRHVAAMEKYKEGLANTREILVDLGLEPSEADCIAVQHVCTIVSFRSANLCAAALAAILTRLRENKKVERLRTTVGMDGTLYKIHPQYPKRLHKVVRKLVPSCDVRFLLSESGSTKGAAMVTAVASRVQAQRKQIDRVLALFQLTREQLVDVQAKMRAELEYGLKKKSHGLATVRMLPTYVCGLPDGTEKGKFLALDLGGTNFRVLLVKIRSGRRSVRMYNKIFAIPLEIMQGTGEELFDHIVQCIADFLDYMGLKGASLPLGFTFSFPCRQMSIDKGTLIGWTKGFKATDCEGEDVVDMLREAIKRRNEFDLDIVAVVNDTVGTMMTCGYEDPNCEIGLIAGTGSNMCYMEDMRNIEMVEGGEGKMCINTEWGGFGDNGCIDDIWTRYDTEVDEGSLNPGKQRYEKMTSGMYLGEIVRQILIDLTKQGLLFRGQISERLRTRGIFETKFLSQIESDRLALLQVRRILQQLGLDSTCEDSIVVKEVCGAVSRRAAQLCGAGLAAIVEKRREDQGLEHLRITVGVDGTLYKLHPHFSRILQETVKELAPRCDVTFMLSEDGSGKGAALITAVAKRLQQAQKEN
UniProt P52789: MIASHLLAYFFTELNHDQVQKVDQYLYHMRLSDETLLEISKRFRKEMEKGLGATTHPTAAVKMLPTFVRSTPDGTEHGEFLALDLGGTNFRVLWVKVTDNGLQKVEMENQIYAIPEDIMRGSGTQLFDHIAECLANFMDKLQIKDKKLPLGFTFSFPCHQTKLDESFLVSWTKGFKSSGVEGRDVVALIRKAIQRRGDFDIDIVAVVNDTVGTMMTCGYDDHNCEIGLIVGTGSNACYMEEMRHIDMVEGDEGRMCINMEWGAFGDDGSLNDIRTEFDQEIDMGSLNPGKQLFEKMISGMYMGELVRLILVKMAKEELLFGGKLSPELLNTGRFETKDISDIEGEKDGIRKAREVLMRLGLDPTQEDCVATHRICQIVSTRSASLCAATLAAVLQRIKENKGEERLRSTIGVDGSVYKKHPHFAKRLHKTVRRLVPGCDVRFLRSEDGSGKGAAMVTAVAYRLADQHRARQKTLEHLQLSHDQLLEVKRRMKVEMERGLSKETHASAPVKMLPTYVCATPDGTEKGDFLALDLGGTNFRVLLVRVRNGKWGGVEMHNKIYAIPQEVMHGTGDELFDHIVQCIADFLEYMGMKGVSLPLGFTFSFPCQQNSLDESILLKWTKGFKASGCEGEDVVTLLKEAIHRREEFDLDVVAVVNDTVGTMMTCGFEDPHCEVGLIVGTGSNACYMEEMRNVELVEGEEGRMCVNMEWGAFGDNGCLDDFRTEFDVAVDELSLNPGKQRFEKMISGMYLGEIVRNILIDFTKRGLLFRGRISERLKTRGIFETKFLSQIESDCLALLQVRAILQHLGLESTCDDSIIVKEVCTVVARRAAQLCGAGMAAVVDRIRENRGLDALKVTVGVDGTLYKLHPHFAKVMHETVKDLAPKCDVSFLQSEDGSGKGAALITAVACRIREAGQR
UniProt Q92506: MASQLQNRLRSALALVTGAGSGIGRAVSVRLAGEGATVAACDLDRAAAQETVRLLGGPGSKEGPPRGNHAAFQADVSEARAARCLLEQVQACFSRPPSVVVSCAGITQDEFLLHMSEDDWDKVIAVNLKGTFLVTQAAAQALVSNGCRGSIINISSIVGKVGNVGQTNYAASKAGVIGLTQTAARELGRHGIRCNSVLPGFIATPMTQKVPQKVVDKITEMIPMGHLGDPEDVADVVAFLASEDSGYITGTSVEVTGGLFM
UniProt Q1KMD3: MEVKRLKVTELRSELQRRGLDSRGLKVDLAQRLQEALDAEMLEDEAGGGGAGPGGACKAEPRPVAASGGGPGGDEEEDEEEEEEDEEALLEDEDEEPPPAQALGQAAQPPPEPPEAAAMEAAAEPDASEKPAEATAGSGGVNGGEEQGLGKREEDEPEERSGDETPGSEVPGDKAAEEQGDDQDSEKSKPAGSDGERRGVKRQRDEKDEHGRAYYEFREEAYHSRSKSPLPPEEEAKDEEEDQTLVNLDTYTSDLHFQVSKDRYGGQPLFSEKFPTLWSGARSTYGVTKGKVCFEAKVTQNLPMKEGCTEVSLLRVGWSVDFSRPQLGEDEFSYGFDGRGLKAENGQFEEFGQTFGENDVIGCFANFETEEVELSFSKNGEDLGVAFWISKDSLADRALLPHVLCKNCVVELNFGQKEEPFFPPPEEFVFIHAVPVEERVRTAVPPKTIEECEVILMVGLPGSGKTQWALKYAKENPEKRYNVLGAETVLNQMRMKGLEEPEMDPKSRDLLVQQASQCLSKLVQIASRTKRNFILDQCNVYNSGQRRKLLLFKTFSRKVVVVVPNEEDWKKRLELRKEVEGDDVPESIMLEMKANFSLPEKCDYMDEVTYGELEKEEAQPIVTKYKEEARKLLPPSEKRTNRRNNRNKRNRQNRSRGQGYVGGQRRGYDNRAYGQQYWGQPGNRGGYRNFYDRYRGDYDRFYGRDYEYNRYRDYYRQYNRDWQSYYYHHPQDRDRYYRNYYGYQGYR
UniProt Q6DN03, whole entry, looked up: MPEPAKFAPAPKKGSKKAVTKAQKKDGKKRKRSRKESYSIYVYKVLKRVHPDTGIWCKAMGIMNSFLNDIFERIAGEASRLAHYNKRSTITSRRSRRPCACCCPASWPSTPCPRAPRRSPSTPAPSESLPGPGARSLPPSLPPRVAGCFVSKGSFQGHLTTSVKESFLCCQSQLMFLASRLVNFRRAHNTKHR
UniProt Q53FT3: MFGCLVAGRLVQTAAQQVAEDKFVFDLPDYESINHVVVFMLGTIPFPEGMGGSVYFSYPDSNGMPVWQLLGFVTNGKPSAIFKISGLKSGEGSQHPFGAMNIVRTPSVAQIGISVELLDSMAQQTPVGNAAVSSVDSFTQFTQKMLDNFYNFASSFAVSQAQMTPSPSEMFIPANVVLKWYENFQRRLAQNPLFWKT
UniProt O75146: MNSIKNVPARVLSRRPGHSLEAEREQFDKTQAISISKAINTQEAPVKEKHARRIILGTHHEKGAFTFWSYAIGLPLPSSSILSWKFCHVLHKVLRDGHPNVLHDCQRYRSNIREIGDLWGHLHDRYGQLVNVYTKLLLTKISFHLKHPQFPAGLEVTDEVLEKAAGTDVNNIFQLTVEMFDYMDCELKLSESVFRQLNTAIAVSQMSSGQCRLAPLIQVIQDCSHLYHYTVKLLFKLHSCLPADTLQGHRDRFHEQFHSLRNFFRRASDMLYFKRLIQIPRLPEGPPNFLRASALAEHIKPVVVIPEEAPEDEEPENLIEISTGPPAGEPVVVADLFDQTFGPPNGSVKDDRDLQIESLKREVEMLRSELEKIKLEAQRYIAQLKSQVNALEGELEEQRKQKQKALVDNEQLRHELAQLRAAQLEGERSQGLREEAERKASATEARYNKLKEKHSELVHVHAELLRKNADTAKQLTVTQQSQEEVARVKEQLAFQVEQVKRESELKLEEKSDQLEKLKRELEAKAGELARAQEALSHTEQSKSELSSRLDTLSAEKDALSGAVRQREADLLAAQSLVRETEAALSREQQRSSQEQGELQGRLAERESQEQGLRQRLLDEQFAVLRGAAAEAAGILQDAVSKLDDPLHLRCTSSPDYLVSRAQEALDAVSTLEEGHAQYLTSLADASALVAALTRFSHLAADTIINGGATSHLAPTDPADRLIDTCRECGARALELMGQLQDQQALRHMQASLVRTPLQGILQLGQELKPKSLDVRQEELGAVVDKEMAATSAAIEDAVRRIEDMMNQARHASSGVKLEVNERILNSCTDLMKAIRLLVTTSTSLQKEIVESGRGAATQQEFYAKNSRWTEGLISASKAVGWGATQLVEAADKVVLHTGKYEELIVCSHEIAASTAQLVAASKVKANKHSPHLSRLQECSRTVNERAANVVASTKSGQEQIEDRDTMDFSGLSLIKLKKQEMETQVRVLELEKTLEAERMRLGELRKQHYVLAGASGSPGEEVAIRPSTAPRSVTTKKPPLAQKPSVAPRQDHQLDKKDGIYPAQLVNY
UniProt P30519: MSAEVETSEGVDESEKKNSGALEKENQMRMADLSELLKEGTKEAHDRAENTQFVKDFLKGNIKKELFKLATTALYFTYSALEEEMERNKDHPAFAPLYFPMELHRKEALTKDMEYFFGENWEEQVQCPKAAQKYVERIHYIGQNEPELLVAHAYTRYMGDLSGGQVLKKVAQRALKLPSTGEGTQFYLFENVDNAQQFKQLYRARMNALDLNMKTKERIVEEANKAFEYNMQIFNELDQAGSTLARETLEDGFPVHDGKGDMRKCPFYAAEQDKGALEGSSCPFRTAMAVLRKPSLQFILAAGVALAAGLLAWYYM
UniProt Q14527: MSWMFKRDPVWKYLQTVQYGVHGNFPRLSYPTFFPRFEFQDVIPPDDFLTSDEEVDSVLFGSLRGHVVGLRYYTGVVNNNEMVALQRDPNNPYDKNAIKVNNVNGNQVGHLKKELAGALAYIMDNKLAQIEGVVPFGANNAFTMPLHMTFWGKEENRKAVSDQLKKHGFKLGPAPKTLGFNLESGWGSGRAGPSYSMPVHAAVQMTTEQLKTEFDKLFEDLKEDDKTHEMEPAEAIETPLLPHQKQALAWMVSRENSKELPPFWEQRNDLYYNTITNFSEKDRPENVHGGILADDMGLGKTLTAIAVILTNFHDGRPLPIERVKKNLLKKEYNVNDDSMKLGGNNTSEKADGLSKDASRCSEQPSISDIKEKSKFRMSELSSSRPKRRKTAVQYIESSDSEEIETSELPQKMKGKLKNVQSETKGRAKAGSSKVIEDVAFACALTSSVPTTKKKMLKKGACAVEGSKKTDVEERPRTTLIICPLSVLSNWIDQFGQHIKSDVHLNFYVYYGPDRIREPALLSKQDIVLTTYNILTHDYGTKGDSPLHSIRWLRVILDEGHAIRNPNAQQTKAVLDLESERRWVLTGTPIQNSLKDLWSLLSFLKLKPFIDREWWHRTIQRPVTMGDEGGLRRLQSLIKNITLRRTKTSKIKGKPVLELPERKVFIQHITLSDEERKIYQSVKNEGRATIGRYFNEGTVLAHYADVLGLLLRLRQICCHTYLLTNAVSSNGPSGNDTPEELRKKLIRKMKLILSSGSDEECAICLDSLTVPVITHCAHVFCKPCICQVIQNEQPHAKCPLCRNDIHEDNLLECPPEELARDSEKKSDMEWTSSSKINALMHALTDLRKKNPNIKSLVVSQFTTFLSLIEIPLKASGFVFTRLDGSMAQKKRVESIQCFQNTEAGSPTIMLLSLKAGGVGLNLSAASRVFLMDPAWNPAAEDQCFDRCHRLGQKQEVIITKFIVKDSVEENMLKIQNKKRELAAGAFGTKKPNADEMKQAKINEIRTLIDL
UniProt P28356, whole entry, looked up: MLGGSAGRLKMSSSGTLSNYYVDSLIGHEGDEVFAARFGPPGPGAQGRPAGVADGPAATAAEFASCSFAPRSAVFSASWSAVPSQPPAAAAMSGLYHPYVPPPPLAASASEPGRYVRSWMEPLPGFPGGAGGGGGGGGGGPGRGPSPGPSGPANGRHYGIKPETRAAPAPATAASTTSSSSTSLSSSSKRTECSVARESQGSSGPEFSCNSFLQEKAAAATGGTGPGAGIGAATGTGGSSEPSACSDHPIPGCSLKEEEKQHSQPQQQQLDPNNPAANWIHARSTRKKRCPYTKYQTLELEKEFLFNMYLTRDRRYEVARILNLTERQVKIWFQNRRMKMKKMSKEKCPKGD
UniProt Q03014: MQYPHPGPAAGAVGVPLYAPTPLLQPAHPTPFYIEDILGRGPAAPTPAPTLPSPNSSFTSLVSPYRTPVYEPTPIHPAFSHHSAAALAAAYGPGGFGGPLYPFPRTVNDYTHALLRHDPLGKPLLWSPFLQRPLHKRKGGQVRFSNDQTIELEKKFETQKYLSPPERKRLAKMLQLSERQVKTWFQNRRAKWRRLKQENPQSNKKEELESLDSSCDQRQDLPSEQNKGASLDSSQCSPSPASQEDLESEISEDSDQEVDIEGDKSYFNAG
UniProt P07910: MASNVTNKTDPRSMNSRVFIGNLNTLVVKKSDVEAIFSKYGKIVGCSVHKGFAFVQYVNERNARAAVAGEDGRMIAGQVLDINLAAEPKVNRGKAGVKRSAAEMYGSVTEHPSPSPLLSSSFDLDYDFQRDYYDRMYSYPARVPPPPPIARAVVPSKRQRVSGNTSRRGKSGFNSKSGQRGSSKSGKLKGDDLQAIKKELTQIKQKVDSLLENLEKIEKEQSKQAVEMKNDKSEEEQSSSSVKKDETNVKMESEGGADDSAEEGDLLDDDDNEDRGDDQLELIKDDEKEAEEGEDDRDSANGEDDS

Key:
Assay in all cases: log2 fold change, soluble protein after heating vs DMSO (PISA); higher = thermal stabilisation; K562 cells, 10 uM, 30 min; active = over 0.2 and 3.5 SD of the protein, either way, in both replicates (recomputed)
saracatinib = compound: CN1CCN(CCOc2cc(OC3CCOCC3)c3c(Nc4c(Cl)ccc5c4OCO5)ncnc3c2)CC1 [saracatinib]
In short: (§1)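 K562 cells (2×10^6 cells/mL) were treated with 10 μM compound for 30 min, and aliquots were heated for 3 min over 48°C-58°C. Pooled aliquots were extracted in PBS with 0.5% NP-40 at 4°C, and the supernatant after 21,000xg for 90 min was measured by TMTpro 16plex LC-MS/MS with channel sums equalised. Reported thermal stability, relative to control samples and from duplicates, is a log2 fold change.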

sotrastaurin = compound: CN1CCN(c2nc(C3=C(c4c[nH]c5ccccc45)C(=O)NC3=O)c3ccccc3n2)CC1 [sotrastaurin]
In short: as §1

alvocidib = compound: CN1CC[C@H](c2c(O)cc(O)c3c(=O)cc(-c4ccccc4Cl)oc23)[C@H](O)C1 [alvocidib]
In short: as §1

Tubastatin A = compound: CN1CCc2c(c3ccccc3n2Cc2ccc(C(=O)NO)cc2)C1 [Tubastatin A]
In short: as §1

rucaparib = compound: CNCc1ccc(-c2[nH]c3cc(F)cc4c3c2CCNC4=O)cc1 [rucaparib]
In short: as §1

[1] = compound: CNc1nc(-c2ccc3c(N)n[nH]c3c2)cc(N2C[C@@H](C(=O)NC3CCCCC3)CC[C@H]2C)n1
In short: as §1

encorafenib = compound: COC(=O)N[C@@H](C)CNc1nccc(-c2cn(C(C)C)nc2-c2cc(Cl)cc(NS(C)(=O)=O)c2F)n1 [encorafenib]
In short: as §1

[2] = compound: CNC(=O)C1=CC=CC=C1NC2=NC(=NC=C2Cl)NC3=C(C=C(C=C3)N4CCOCC4)OC
In short: as §1

defactinib = compound: CNC(=O)c1ccc(Nc2ncc(C(F)(F)F)c(NCc3nccnc3N(C)S(C)(=O)=O)n2)cc1 [defactinib]
In short: as §1

[3] = compound: COC(=O)[C@H](CCSC)NC(=O)C1=C(C=C(C=C1)NC[C@H](CS)N)C2=CC=CC=C2
In short: as §1

Target | log2 fold change (saracatinib) | log2 fold change (sotrastaurin) | log2 fold change (alvocidib) | log2 fold change (Tubastatin A) | log2 fold change (rucaparib) | log2 fold change [1] | log2 fold change (encorafenib) | log2 fold change [2] | log2 fold change (defactinib) | log2 fold change [3]
IBTK (UniProt Q9P2D0) | inactive: -0.039 | inactive: -0.23 | inactive: 0.176 | inactive: -0.026 | inactive: 0.512 | inactive: -0.027 | inactive: -0.108 |  |  | 
HMGN4 (UniProt O00479) | inactive: -0.832 | inactive: -0.257 | inactive: -0.074 | inactive: -0.063 | inactive: 0.294 | inactive: -0.132 | inactive: -0.114 | inactive: -0.001 | inactive: 0.007 | inactive: -0.066
HKDC1 (UniProt Q2TB90) | inactive: 0.038 | inactive: 0.046 | inactive: -0.052 | inactive: -0.047 | inactive: -0.032 | inactive: -0.006 | inactive: 0.028 | inactive: -0.075 | inactive: -0.039 | inactive: -0.046
HNRNPH1 (UniProt P31943) | inactive: -0.018 | inactive: -0.157 |  | inactive: 0.076 | inactive: 0.08 | inactive: 0.058 | inactive: 0.114 | inactive: -0.065 | inactive: -0.278 | inactive: -0.047
HMGCR isoform 3 (UniProt P04035) | inactive: 0.002 | inactive: -0.287 |  | active: 0.33 | inactive: -0.208 | inactive: -0.024 | inactive: 0.094 | inactive: -0.133 | inactive: -0.004 | inactive: 0.146
HUWE1 isoform 2 (UniProt Q7Z6Z7) | inactive: 0.092 | inactive: -0.152 | inactive: -0.253 |  |  | inactive: 0.022 |  | inactive: -0.066 |  | 
HSPA6 (UniProt P17066) | inactive: 0.04 | inactive: 0.061 | inactive: 0.027 | inactive: -0.012 | inactive: 0.001 | inactive: -0.081 | inactive: -0.047 | inactive: 0.038 | inactive: 0.03 | inactive: 0.037
HK2 (UniProt P52789) | inactive: 0.008 | inactive: -0.075 |  | inactive: -0.006 | inactive: -0.011 | inactive: -0.045 | inactive: 0.026 | active: -0.334 | inactive: -0.08 | inactive: -0.005
HSPB1 (UniProt P04792) | inactive: -0.117 | inactive: -0.077 | inactive: -0.013 | inactive: -0.008 | inactive: 0.092 | inactive: 0.015 | inactive: 0.008 | inactive: 0.028 | inactive: -0.023 | inactive: -0.027
IARS2 (UniProt Q9NSE4) | inactive: 0.045 | inactive: 0.022 | inactive: -0.004 | inactive: -0.026 | inactive: -0.014 | inactive: -0.035 | inactive: -0.02 | inactive: 0.005 | inactive: -0.02 | inactive: 0.001
HSD17B8 (UniProt Q92506) | inactive: 0.076 | inactive: 0.023 | inactive: -0.021 | inactive: -0.01 | inactive: -0.045 | inactive: -0.059 | inactive: -0.009 | inactive: -0.009 | inactive: -0.043 | inactive: -0.041
HMGN1 (UniProt P05114) | inactive: 0.024 | inactive: 0.068 |  | inactive: -0.087 | inactive: 0.043 | inactive: -0.064 | inactive: -0.01 | inactive: 0.03 | inactive: 0.09 | inactive: 0.011
HOMER1 (UniProt Q86YM7) | inactive: 0.032 | inactive: 0.045 |  | inactive: -0.084 | inactive: 0.021 | inactive: 0.007 | inactive: 0.04 | inactive: 0.021 | inactive: 0.015 | inactive: -0.047
HNRNPUL2 (UniProt Q1KMD3) | inactive: -0.023 | inactive: 0.039 |  | inactive: 0.065 | inactive: 0.125 | inactive: -0.017 | inactive: 0.007 | inactive: -0.06 | active: 0.259 | inactive: 0.006
HIST2H2BC (UniProt Q6DN03) | inactive: -0.123 | inactive: 0.179 |  | inactive: 0.16 | inactive: 0.464 | inactive: 0.01 | inactive: 0.104 | inactive: -0.101 | inactive: 0.535 | inactive: 0.074
ICMT (UniProt O60725) | inactive: -0.105 | inactive: 0.025 |  | inactive: -0.065 | inactive: 0.037 | inactive: 0.235 | inactive: -0.144 | inactive: 0.061 | inactive: -0.034 | inactive: 0.062

Quoted from the listing (two entries):
Target | log2 fold change (saracatinib) | log2 fold change (sotrastaurin) | log2 fold change (alvocidib) | log2 fold change (Tubastatin A) | log2 fold change (rucaparib) | log2 fold change [1] | log2 fold change (encorafenib) | log2 fold change [2] | log2 fold change (defactinib) | log2 fold change [3]
HMGN1 (UniProt P05114) | inactive: 0.024 | inactive: 0.068 |  | inactive: -0.087 | inactive: 0.043 | inactive: -0.064 | inactive: -0.01 | inactive: 0.03 | inactive: 0.09 | inactive: 0.011
HOMER1 (UniProt Q86YM7) | inactive: 0.032 | inactive: 0.045 |  | inactive: -0.084 | inactive: 0.021 | inactive: 0.007 | inactive: 0.04 | inactive: 0.021 | inactive: 0.015 | inactive: -0.047

Going on with the list.

Target | log2 fold change (saracatinib) | log2 fold change (sotrastaurin) | log2 fold change (alvocidib) | log2 fold change (Tubastatin A) | log2 fold change (rucaparib) | log2 fold change [1] | log2 fold change (encorafenib) | log2 fold change [2] | log2 fold change (defactinib) | log2 fold change [3]
HNRNPH2 (UniProt P55795) | inactive: -0.065 | inactive: -0.081 |  | inactive: 0.101 | inactive: 0.002 | inactive: -0.001 | inactive: 0.02 | inactive: -0.079 | inactive: -0.173 | inactive: -0.068
HIKESHI (UniProt Q53FT3) | inactive: 0.03 | inactive: 0.043 |  | inactive: -0.01 | inactive: 0.029 | inactive: -0.003 | inactive: 0.024 | inactive: 0.046 | inactive: -0.038 | inactive: 0.028
HOOK3 (UniProt Q86VS8) | inactive: -0.016 | inactive: -0.166 |  | inactive: -0.019 | inactive: -0.063 | inactive: -0.008 | inactive: 0.022 | inactive: 0.013 | inactive: -0.005 | inactive: -0.007
HNRNPUL1 (UniProt M0R247) | inactive: -0.327 | inactive: 0.128 |  | inactive: -0.054 | inactive: 0.09 | inactive: -0.431 | inactive: -0.086 | inactive: -0.145 |  | 
HMGN2 (UniProt P05204) | inactive: -0.138 | inactive: 0.156 |  | inactive: -0.05 | inactive: 0.13 | inactive: 0.075 | inactive: -0.091 | inactive: 0.026 | inactive: 0.046 | inactive: 0.013
HIP1R (UniProt O75146) | inactive: 0.051 | inactive: -0.045 |  | inactive: 0.007 | inactive: 0.018 | inactive: 0.015 | inactive: -0.019 | inactive: 0.037 | inactive: -0.063 | inactive: 0.016
HMOX2 (UniProt P30519) | inactive: -0.071 | inactive: -0.04 |  | inactive: 0.004 | inactive: 0.036 | inactive: 0.15 | inactive: 0.081 | inactive: 0.03 | inactive: -0.049 | inactive: -0.038
HSPA8 (UniProt E9PK54) | inactive: -0.058 | inactive: -0.054 |  | inactive: -0.003 | inactive: -0.287 | inactive: -0.033 | inactive: 0.051 | inactive: 0.072 | inactive: -0.012 | inactive: 0.048
HLTF (UniProt Q14527) | inactive: -0.012 | inactive: 0.019 |  | inactive: 0.081 | inactive: -0.033 | inactive: -0.074 | inactive: -0.195 | inactive: -0.03 | inactive: -0.122 | inactive: -0.027
HOXD9 (UniProt P28356) | inactive: -0.036 |  | inactive: -0.238 |  | inactive: 0.099 | inactive: -0.02 | inactive: 0.276 | inactive: 0.079 | inactive: -0.012 | inactive: -0.003
HHEX (UniProt Q03014) | inactive: 0.095 | inactive: -0.068 |  | inactive: 0.126 | inactive: 0.04 | inactive: -0.011 | inactive: -0.061 | inactive: 0.035 | inactive: -0.173 | inactive: 0.651
HRAS (UniProt P01112) | inactive: 0.002 | inactive: 0.091 |  | inactive: 0.014 | inactive: 0.072 | inactive: 0.077 | inactive: -0.042 | inactive: -0.015 | inactive: -0.012 | inactive: 0.062
HSD17B12 (UniProt Q53GQ0) | inactive: -0.037 | inactive: 0.151 |  | inactive: -0.007 | inactive: -0.043 | inactive: 0.038 | inactive: 0.027 | inactive: 0.005 | inactive: -0.024 | inactive: 0.013
HSPA8 (UniProt P11142) | inactive: 0.067 | inactive: 0.007 |  | inactive: -0.019 | inactive: -0.029 | inactive: -0.002 | inactive: -0.009 | inactive: 0.139 | inactive: 0.006 | inactive: 0.042
HRC (UniProt P23327) | inactive: 0.063 | inactive: 0.057 |  | inactive: -0.125 | inactive: 0.01 | inactive: -0.057 | inactive: -0.066 | inactive: 0.009 | inactive: -0.011 | inactive: 0.043
HNRNPC isoform 2 (UniProt P07910) | inactive: -0.067 | inactive: -0.035 |  | inactive: 0.219 | inactive: 0.392 | inactive: 0.115 | inactive: 0.148 | inactive: 0.033 | inactive: 0.054 | inactive: 0.071
